Measurements reported in PubChem BioAssay AID1117288 (Broad Institute, 2014).
This list was built around the results that the source calls inconclusive (neither active nor inactive); the mix of calls is not that of the screen. Calls of active or inactive are those of the source.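 How the source made its calls: active means compound whose fitted half-inhibition dose sits at or below twice its top tested dose in every test run; inconclusive means test runs disagree, or every run is unclear; inactive means inactive in every test run.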

Protein sequences, listed by entry. Tags and fused reporters are not part of them.
UniProt Q8C129, whole entry, looked up: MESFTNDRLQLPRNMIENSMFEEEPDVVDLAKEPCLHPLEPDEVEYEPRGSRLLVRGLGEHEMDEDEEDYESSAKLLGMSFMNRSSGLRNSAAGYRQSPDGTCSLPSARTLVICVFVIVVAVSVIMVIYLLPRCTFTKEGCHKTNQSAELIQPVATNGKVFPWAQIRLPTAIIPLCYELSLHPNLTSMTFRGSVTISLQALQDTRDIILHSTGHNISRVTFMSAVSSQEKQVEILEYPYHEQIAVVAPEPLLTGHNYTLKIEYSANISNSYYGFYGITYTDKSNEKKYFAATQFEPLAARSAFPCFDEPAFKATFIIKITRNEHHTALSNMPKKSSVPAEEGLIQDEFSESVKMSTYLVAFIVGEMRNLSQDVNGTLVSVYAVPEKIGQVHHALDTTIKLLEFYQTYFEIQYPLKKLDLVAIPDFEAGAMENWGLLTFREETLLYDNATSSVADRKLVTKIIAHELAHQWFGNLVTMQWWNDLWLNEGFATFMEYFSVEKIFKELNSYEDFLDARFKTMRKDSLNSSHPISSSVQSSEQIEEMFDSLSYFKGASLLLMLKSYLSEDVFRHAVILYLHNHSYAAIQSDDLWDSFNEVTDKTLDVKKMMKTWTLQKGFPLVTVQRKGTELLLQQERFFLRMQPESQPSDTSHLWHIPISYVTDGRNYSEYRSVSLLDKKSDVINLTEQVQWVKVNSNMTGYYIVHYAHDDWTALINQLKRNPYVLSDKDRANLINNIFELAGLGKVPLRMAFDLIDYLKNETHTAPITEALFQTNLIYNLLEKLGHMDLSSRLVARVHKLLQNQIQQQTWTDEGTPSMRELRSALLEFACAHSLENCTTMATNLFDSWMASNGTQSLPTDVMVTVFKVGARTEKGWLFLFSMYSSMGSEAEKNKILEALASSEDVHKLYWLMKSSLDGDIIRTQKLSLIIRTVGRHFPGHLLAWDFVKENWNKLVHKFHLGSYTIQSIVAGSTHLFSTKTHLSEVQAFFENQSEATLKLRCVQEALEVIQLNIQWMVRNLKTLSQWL

Each molecule was assayed against Leucyl-cystinyl aminopeptidase (Mus musculus) (UniProt Q8C129) (assay: IRAP enzyme inhibitors, dose response, selectivity assay for ERAP1 modulator project, biochemical, dry powder samples, set 3 (AID 1117288)). Conditions: purified IRAP enzyme, Leu-AMC fluorescence, 1 h; at 50 µM (top of the series).
In the case of COc1ccc(C(=O)O)cc1S(=O)(=O)Nc1cc(C(F)(F)F)ccc1N1CCOCC1, the activity change, negative = inhibition is reported as inactive: 28.6%. For COc1ccc(C(=O)O)cc1S(=O)(=O)Nc1cc(C(F)(F)F)ccc1N1CCN(C(C)=O)CC1, the activity change, negative = inhibition was inconclusive: -10.4%. In the case of COc1ccc(C(=O)Nc2cccc(C(F)(F)F)c2)cc1S(=O)(=O)O, the activity change, negative = inhibition is reported as inconclusive: 3.08%.
